Results are given in words; binding and its absence hold for the method and conditions named. In cells and extracts the contact can be indirect. Some results given as binding are weak or reduced against the parent protein; the word gives no strength.
Molecular target: T1, Protein phosphatase 6 (PP6), endogenous in HaCaT cells (human (endogenous in HaCaT)) (UniProt O00743)
T1 sequence: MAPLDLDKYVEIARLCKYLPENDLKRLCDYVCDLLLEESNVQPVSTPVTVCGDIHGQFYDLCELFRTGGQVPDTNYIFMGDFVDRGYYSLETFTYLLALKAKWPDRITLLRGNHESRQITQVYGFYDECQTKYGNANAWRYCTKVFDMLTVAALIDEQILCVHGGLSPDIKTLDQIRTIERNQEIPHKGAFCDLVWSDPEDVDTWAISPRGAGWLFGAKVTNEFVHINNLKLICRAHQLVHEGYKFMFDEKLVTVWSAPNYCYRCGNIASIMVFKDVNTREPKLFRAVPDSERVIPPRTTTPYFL
Assay: co-IP; PP6 immunoprecipitated (anti-PPP6C) from HaCaT cells transfected with an HA-Ubiquitin plasmid and scramble siRNA or IGBP1 siRNA, or empty vector or IGBP1 overexpression plasmid; immunoblot for CHIP

By UniProt entry, the sequences of proteins in these tests, tags left out.
UniProt Q9UNE7: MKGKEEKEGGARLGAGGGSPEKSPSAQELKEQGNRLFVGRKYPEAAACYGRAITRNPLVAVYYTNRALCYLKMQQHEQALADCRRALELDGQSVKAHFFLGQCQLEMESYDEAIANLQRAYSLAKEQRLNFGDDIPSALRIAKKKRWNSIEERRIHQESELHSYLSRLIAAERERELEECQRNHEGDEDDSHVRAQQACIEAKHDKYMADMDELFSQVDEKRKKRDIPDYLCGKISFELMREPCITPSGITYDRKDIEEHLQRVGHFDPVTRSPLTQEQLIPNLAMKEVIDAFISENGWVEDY

CHIP (E3 ubiquitin ligase) (from UniProt Q9UNE7 1-303) (enzyme)
binding: binds

Source: PMC9763329, “Targeting the transcription factor HES1 by L-menthol restores protein phosphatase 6 in keratinocytes in models of psoriasis” (Nature Communications, 2022)
